This assay has as its target GFP-RCP (GFP-tagged Rab-coupling protein) (UniProt Q6WKZ4). Description: co-IP; GFP or GFP-RCP transfected into H1299 cells stably expressing mutant p53 R273H or empty vector; lysates immunoprecipitated with anti-GFP; P-gp detected by western blot. In general terms: Immunoblotting shows a protein as a band on a membrane.

By UniProt entry, the sequences of proteins in these tests, tags left out. Where a name states a change or a piece, a line headed by the entry shows the natural chain unless it says otherwise.
UniProt Q6WKZ4: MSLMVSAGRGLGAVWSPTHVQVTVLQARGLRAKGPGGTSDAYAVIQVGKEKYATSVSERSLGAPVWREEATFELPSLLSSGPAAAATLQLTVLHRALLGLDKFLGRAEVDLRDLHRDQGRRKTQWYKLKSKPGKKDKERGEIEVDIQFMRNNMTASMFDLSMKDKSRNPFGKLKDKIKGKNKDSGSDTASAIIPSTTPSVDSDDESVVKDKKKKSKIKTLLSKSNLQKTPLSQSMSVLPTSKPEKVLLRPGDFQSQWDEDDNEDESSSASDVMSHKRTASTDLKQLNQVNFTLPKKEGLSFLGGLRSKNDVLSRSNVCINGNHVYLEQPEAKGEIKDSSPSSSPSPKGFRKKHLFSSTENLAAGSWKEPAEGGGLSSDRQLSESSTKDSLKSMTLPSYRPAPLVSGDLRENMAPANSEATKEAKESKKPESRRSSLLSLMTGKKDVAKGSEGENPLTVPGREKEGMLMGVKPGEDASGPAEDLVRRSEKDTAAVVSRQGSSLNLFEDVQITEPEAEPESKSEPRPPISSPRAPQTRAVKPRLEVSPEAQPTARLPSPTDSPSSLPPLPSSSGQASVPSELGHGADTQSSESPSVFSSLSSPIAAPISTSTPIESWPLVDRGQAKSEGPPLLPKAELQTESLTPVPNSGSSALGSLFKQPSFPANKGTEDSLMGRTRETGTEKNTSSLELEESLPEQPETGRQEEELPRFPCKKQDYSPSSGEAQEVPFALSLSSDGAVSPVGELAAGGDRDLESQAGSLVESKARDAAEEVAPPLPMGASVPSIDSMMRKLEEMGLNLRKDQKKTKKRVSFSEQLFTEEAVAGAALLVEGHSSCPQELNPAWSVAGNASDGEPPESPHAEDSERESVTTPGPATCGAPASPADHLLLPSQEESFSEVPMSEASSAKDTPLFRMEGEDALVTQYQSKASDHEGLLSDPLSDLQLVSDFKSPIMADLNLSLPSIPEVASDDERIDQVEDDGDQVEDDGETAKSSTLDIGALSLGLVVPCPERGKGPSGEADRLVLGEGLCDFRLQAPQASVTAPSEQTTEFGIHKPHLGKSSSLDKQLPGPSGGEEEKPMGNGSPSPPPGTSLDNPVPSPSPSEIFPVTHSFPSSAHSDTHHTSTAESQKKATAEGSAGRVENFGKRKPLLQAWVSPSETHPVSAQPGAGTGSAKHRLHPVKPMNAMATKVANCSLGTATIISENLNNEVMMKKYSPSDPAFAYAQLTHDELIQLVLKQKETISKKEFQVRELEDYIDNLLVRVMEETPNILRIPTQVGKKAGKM
UniProt P08183: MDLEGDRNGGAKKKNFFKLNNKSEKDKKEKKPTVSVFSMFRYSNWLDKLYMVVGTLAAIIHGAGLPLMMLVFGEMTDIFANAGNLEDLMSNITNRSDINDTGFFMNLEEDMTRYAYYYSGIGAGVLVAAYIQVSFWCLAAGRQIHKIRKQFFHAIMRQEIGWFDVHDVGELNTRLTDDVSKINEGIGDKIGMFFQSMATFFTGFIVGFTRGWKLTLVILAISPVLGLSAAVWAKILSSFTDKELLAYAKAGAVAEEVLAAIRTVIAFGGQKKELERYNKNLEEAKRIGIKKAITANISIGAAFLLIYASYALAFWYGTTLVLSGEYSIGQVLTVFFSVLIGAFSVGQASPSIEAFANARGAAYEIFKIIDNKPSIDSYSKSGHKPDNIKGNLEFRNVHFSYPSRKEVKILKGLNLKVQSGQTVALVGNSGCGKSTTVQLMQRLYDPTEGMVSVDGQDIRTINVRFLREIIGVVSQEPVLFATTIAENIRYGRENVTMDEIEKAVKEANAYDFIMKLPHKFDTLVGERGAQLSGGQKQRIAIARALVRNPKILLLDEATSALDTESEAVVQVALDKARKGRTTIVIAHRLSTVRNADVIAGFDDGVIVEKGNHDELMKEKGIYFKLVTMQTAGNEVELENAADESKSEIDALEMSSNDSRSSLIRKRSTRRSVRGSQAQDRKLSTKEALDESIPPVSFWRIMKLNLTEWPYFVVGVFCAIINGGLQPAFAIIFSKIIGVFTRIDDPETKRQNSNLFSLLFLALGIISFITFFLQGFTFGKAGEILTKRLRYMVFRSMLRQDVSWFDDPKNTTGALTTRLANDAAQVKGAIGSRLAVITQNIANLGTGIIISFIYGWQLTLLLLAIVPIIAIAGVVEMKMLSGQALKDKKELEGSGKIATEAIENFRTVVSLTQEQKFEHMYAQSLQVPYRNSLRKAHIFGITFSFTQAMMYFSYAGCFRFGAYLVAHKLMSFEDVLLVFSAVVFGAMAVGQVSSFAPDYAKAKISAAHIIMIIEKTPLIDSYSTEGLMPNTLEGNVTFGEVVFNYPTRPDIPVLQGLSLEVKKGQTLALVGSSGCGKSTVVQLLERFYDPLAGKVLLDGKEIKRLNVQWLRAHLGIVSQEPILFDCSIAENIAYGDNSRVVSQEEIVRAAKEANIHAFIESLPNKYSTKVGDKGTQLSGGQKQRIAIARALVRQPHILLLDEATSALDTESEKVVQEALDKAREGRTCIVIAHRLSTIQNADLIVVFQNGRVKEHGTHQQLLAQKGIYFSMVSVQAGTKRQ

Results are given in words; binding and its absence hold for the method and conditions named. In cells and extracts the contact can be indirect. Binding calls can cover weak binding; strength is not graded here.

In the case of “P-glycoprotein (from UniProt P08183 1-1280)”, the binding entry is recorded as “binds”.

For the origin of these results see paper PMC7904762.
